Assay results as given in ChEMBL document CHEMBL4303122, “Identification of potential treatments for COVID-19 through artificial intelligence-enabled phenomic analysis of human cells infected with SARS-CoV-2” (2020).
In all, about 1,600 compounds were measured (“Hit score”: median about 0.13, highest 2% from about 0.46 on). The list shows a part of the results.

System: SARS-CoV-2
Assay: Antiviral activity against SARS-CoV-2 (USA-WA1/2020 strain) measured by imaging in HRCE cells at MOI 0.4 after 96 hrs (reported as hit score from 0-1 for on-disease vs off-disease activity: scores >0.6 considered hits)
Assay type: functional, Homo sapiens

Row | SMILES | Hit score
1 | CC(C)NC1CCn2c(=O)[nH]c3cccc(c32)C1O (stereo unspecified) [ZILPATEROL] | -0.2417
2 | NC(=O)c1ncn([C@@H]2O[C@H](CO)[C@@H](O)[C@H]2O)n1 [RIBAVIRIN] | 0.2922
3 | CNS(=O)(=O)Cc1ccc2[nH]cc(CCN(C)C)c2c1 | 0.2609
4 | O=C(CCCl)NCc1ccccc1 [BECLAMIDE] | 0.1071
5 | COc1ccc(-c2nc3cc(C4=NNC(=O)CC4C)ccc3[nH]2)cc1 (stereo unspecified) [PIMOBENDAN] | 0.05674
6 | CCOc1ccc(CC2=NCCc3cc(OCC)c(OCC)cc32)cc1OCC | 0.1332
7 | COc1cc(C(=O)NS(=O)(=O)c2ccccc2C)ccc1Cc1cn(C)c2ccc(NC(=O)OC3CCCC3)cc12 [ZAFIRLUKAST] | 0.1738
8 | Cc1cc(C2CCCCC2)n(O)c(=O)c1 [CICLOPIROX] | 0.151
9 | CC1=C(C(=O)OC(C)C)C(c2cccc([N+](=O)[O-])c2)C(C(=O)OC2CN(C(c3ccccc3)c3ccccc3)C2)=C(N)N1 (stereo unspecified) [AZELNIDIPINE] | 0.0227
10 | CCCCCCCCCCCCC/C=C/[C@@H](O)[C@H](CO)NC(C)=O | 0.1025
11 | CCOc1cc([C@@H](CS(C)(=O)=O)N2C(=O)c3cccc(NC(C)=O)c3C2=O)ccc1OC | 0.2459
12 | NC(=O)CN1CC(c2ccccc2)CC1=O (stereo unspecified) | 0.1266
13 | NS(=O)(=O)c1cc(C(=O)O)c(NCc2ccco2)cc1Cl [FUROSEMIDE] | 0.07954
14 | Oc1ccc(Cl)cc1Cc1cc(Cl)ccc1O [DICHLOROPHEN] | 0.1527
15 | CC1(C)O[C@@H]2C[C@H]3[C@@H]4CCC5=CC(=O)C=C[C@]5(C)[C@@]4(F)[C@@H](O)C[C@]3(C)[C@]2(C(=O)CO)O1 [TRIAMCINOLONE ACETONIDE] | -0.1503
16 | COc1ccc(Cc2cnc(N)nc2N)cc1OC [DIAVERIDINE] | 0.1965
17 | CN(C)C(=O)COC(=O)Cc1ccc(OC(=O)c2ccc(NC(=N)N)cc2)cc1 [CAMOSTAT] | 0.1639
18 | C[C@@H]1C[C@H]2[C@@H]3CCC4=CC(=O)C=C[C@]4(C)[C@@]3(F)[C@@H](O)C[C@]2(C)[C@H]1C(=O)CO [DESOXIMETASONE] | -0.3284
19 | CN[C@H]1C(=O)N[C@@H]2Cc3ccc(cc3)Oc3cc4cc(c3O[C@@H]3O[C@H](C(=O)O)[C@@H](O)[C@H](O)[C@H]3NC(=O)CCCCCCCCC(C)C)Oc3ccc(cc3Cl)[C@@H](O)[C@@H]3NC(=O)[C@H](NC(=O)[C@@H]4NC(=O)[C@@H](NC2=O)c2cc(cc(O)c2Cl)Oc2cc1ccc2O)c1ccc(O)c(c1)-c1c(O[C@H]2O[C@H](CO)[C@@H](O)[C@H](O)[C@@H]2O)cc(O)cc1[C@@H](C(=O)NCCCN(C)C)NC3=O [DALBAVANCIN] | 0.334
20 | CC1(C)S[C@@H]2[C@H](NC(=O)[C@H](N)c3ccc(O)cc3)C(=O)N2[C@H]1C(=O)[O-].[Na+] [AMOXICILLIN SODIUM] | 0.05468
21 | O=C1NCN(c2ccccc2)C12CCN(CCCC(c1ccc(F)cc1)c1ccc(F)cc1)CC2 | 0.1546

Given in markdown: two of the compounds above

| Row | SMILES | Hit score |
| --- | --- | --- |
| 4 | O=C(CCCl)NCc1ccccc1 [BECLAMIDE] | 0.1071 |
| 10 | CCCCCCCCCCCCC/C=C/[C@@H](O)[C@H](CO)NC(C)=O | 0.1025 |

Additional results

Row | SMILES | Hit score
22 | CN1[C@@H]2CC[C@H]1C[C@@H](OC(=O)[C@H](CO)c1ccccc1)C2 [HYOSCYAMINE] | 0.0469
23 | CCCCC1=NC2(CCCC2)C(=O)N1Cc1ccc(-c2ccccc2-c2nnn[nH]2)cc1 [IRBESARTAN] | 0.2008
24 | NC(=O)Cc1cccc(C(=O)c2ccccc2)c1N | 0.01515
25 | CCOc1ccccc1OCC1CNCCO1 (stereo unspecified) [VILOXAZINE] | 0.08149
26 | CC[C@H]1OC(=O)[C@H](C)[C@@H](O[C@H]2C[C@@](C)(OC)[C@@H](O)[C@H](C)O2)[C@H](C)[C@@H](O[C@@H]2O[C@H](C)C[C@H](N(C)C)[C@H]2O)[C@](C)(OC)C[C@@H](C)C(=O)[C@H](C)[C@@H](O)[C@]1(C)O [CLARITHROMYCIN] | 0.1189
27 | N[C@@H]1CCCCN(c2c(F)cc3c(=O)c(C(=O)O)cn(C4CC4)c3c2Cl)C1 [BESIFLOXACIN] | 0.1261
28 | CCN(Cc1ccc(Cl)nc1)/C(=C/[N+](=O)[O-])NC | 0.05857
29 | O=C(Nc1cc(C(F)(F)F)ccc1O)Nc1cc(C(F)(F)F)ccc1O | 0.158
30 | CCCCOC(=O)c1ccc(N)cc1 [BUTAMBEN] | 0.2076
31 | CC(CCC(=O)O)[C@H]1CCC2C3C[C@H](O)[C@@H]4C[C@H](O)CC[C@]4(C)C3CC[C@@]21C (stereo partly specified) | 0.1858
32 | C[C@H]1O[C@H](O[C@H]2[C@H](O)[C@@H](O)[C@@H](O[C@H]3[C@H](O)[C@@H](O)C(O)O[C@@H]3CO)O[C@@H]2CO)[C@H](O)[C@@H](O)[C@@H]1N[C@H]1C=C(CO)[C@@H](O)[C@H](O)[C@H]1O (stereo partly specified) [ACARBOSE] | 0.1888
33 | Cl.OC[C@H]1NC[C@@H](O)[C@@H](O)[C@@H]1O | 0.1457
34 | C=C1CC[C@H](O)C/C1=C/C=C1\CCC[C@]2(C)[C@@H]([C@H](C)CCCC(C)(C)O)CC[C@@H]12 [CALCIFEDIOL ANHYDROUS] | 0.4579
35 | CCN(CC)CCOC(=O)C(c1ccccc1)C1CCCCC1 (stereo unspecified) [DROFENINE] | 0.258
36 | COc1cc2c(cc1OC)C(=O)C(CC1CCN(Cc3ccccc3)CC1)C2 (stereo unspecified) [DONEPEZIL] | 0.173
37 | CC(C)(C)c1ccc(CN2CCN(C(c3ccccc3)c3ccc(Cl)cc3)CC2)cc1 (stereo unspecified) [BUCLIZINE] | 0.3205
38 | C=CCOc1ccc(CC(=O)O)cc1Cl [ALCLOFENAC] | 0.04614
39 | COC(=O)C1=C(C)NC(C)=C(C(=O)O[C@H]2CCN(Cc3ccccc3)C2)[C@H]1c1cccc([N+](=O)[O-])c1 [BARNIDIPINE] | -0.001023
40 | CC(=O)c1ccc2c(c1)N(CCCN1CCC(CCO)CC1)c1ccccc1S2 [PIPERACETAZINE] | 0.01497
41 | CN1[C@@H]2CC[C@H]1C[C@@H](OC(c1ccccc1)c1ccccc1)C2 [BENZTROPINE] | 0.1527
